Cell number change and AC50 data for 61 compounds are collected here from PubChem BioAssay AID2685 (National Center for Advancing Translational Sciences (NCATS), 2010).

As a reminder, the AC50 is the concentration giving half of the maximal activity seen. High values mean weaker potency, low ones greater potency.

This is one part of the list. Shown are side measurements of this screen, not its main read-out; they come without a call. Most of these compounds were active or inconclusive in the main read-out, so they are no random draw. The note in brackets gives the kind of curve behind each potency; many fits are weak.

This experiment is described as follows: qHTS Assay for Lipid Storage Modulators in Drosophila S3 Cells.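 As to Cell number change: cells counted by Cell Tracker Red CMTPX staining in the red channel.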 To be noted: BODIPY lipid droplet fluorescence, 18-24 h; for cell number change: measured here: cell count max response, cells fed with added oleic acid. Summed up: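 Laser-scanning cytometry quantifies lipid droplet accumulation (500–530 nm total intensity; droplet/cell object ratio) in oleic acid-fed (400 uM added) Drosophila S3 cells treated with a concentration series. 20 uM Triacsin C defined 100% inhibition.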
A general note: In qHTS, concentration-response curves come from the screen itself.

The mark [1] stands for this setting: measured here: lipid fluorescence (Fed channel) AC50, cells fed with added oleic acid.
Setting [2] is: measured here: cell number channel AC50, cells fed with added oleic acid.

For `CCc1ccc(NC(=O)C(C)OC(=O)CC(NC(C)=O)c2ccccc2)cc1` (stereo not drawn), the cell number change stood at 3.97%. The AC50 under setting [1] was 5.17 µM [rising, partial curve, poor fit].

On to `O=C(COc1cccc2ccccc12)Nc1nc2ccccc2[nH]1`, for which the cell number change amounted to 32.3%. Besides, the half-maximal activity concentration (AC50) under setting [2] is 0.411 µM [rising, full curve, poor fit]. Further, the AC50 under setting [1] is 0.58 µM [rising, full curve]. Turning to `COC(=O)c1cc(S(=O)(=O)NCCc2ccc(Cl)cc2)c[nH]1`, the cell number change was -3.29%. Under setting [1], the half-maximal activity concentration (AC50) is 6.51 µM [rising, partial curve, poor fit]. As to `CC1C(c2ccccc2)N(C)C(c2ccccc2)CC1(O)c1ccccc1` (stereo not drawn), the cell number change came out at 11.6%. The half-maximal activity concentration (AC50) under setting [1] was 0.461 µM [falling, single point].

For `CCOc1cccc(=O)c2c(C)n(CC3CCCO3)c(C)c12` (stereo not drawn), the cell number change is -8.31%.

As to `Cc1cc(C)c2cc(CN(CCO)Cc3nnnn3Cc3ccc(F)cc3)c(=O)[nH]c2c1`, the cell number change is 1.65%. Besides, under setting [1], the AC50 is 2.91 µM [rising, full curve].

`COc1ccc(OC)c(CCNC(=O)C2CCN(c3nnc(-n4cccc4)s3)CC2)c1`: under setting [1], the AC50 is 1.3 µM [rising, full curve, poor fit]. As to `COc1ccc(NS(=O)(=O)c2ccc3oc(SC)nc3c2)cc1`, the cell number change was -22.2%. On the same count and under the same terms, the figure for `CC(=O)c1cccc(NC(=S)NC(=O)c2cccc(C)c2)c1` is 15.2%. For `COC(=O)c1[nH]c2ccccc2c1NC(=O)CN1CCN(C(=O)c2ccco2)CC1`, the cell number change is -7.92%. The AC50 under setting [1] was 4.61 µM [rising, single point]. Consider `O=[N+]([O-])c1cnn(-c2nc(-c3ccccc3)cc(C(F)(F)F)n2)c1`, for which the cell number change is -35.6%. Also, the AC50 under setting [2] is 7.31 µM [falling, single point]. The AC50 under setting [1] was 6.51 µM [falling, single point]. On to `CN(Cc1nccn1C)C(=O)CC1C(=O)NCCN1Cc1ccc(F)cc1Cl` (stereo not drawn), for which the cell number change was -5.94%. For `COc1cc([C@@H]2CC=C(C(=O)O)[C@H](c3ccccc3F)N2S(=O)(=O)c2ccc(C)cc2)cc(OC)c1OC`, the cell number change was found to be 21.6%. Further, the AC50 under setting [1] is 29.1 µM [rising, single point].

Take `COC(=O)c1nc(-c2ccc(C)cc2)oc1N(C)C`: the cell number change was -14.6%. In addition, under setting [1], the AC50 was 0.58 µM [rising, single point].

As to `CCOC(=O)C1=C(C)N=c2s/c(=C/c3ccc(OCC(=O)O)cc3)c(=O)n2C1c1ccc(SC)cc1` (stereo not drawn), the cell number change is 44.2%. Further, the concentration at half-maximal activity (AC50) under setting [2] is 29.1 µM [rising, single point].

Take `Cc1ccc(Cn2nnc3c(=O)n(CC(=O)NCc4ccccc4)cnc32)cc1`: the cell number change was found to be 23.8%. Consider `Cc1cccc(C(=O)c2c[nH]cc2-c2ccccc2)c1`, for which the cell number change stood at 20.1%. The concentration at half-maximal activity (AC50) under setting [1] was 3.26 µM [rising, partial curve, poor fit]. In the case of `CCOC(=O)[C@H]1[C@H]2COc3ccccc3[C@@H]2N2C(=O)c3cc(C)ccc3NC(=O)[C@@]12C`, the cell number change is -15.4%. Moreover, under setting [1], the concentration at half-maximal activity (AC50) is 0.58 µM [rising, single point]. Take `COc1ccc(CNC(=O)COC(=O)c2[nH]c(C)c(C(C)=O)c2C)cc1OC`: the cell number change was determined as 1.3%. In addition, the concentration at half-maximal activity (AC50) under setting [1] is 2.06 µM [rising, partial curve, poor fit]. As for `COc1cccc(OCc2cc(C(=O)N(C)C3CCOCC3)no2)c1`, the cell number change is 6.27%.

For `Cc1nnc(NC2=NCCCCC2)o1`, the cell number change was -19.8%. Further, the concentration at half-maximal activity (AC50) under setting [1] is 0.731 µM [falling, full curve, poor fit]. On to `Cc1ccccc1N=C/C=C1/C=C(c2ccccc2)OC(C)(C)O1`, for which the cell number change was -4.03%. Further, the AC50 under setting [1] is 25.9 µM [falling, single point].

Regarding `Cc1oc(C(C)(C)C)cc1C(=O)N1CCCC1C(=O)O` (stereo not drawn), the cell number change was determined as 12.2%. Besides, under setting [1], the AC50 is 0.82 µM [rising, full curve, poor fit]. Take `Cc1cc(C)cc(NC(=O)c2ccc(S(=O)(=O)N(C)CC3CCCO3)cc2)c1` (stereo not drawn): the cell number change is 6.24%. In addition, under setting [1], the AC50 was 16.4 µM [falling, single point]. For the compound `CSc1nc2nc3c(cc2c(=O)[nH]1)C(O)Oc1ccc(C)cc1-3` (stereo not drawn), the cell number change came to 40.6%. Moreover, under setting [2], the AC50 was 29.1 µM [rising, single point].

For `COc1ccccc1Nc1nc(N)nc(CSc2nncn2C)n1`, the half-maximal activity concentration (AC50) by setting is: under setting [2], 3.26 µM [falling, single point]; under setting [1], 4.11 µM [falling, single point].

`Cc1c(Cl)c([N+](=O)[O-])nn1CC(=O)NCC1CCCO1` (stereo not drawn): the cell number change worked out at 18.3%. Take `Cc1cccc(CN2C(=O)N/C(=C/c3ccc(C)s3)C2=O)c1`: the cell number change is 22.9%. Under setting [1], the concentration at half-maximal activity (AC50) is 1.46 µM [rising, partial curve]. `CCN(CC)S(=O)(=O)c1ccc(-c2nnc(SCC(=O)Nc3cc(OC)cc(OC)c3)o2)cc1`: the cell number change was found to be 46.7%. Also, the concentration at half-maximal activity (AC50) under setting [2] was 20.6 µM [rising, single point]. On to `Cc1ccc(N(Cc2cc(=O)[nH]c3ccccc23)C(=O)c2ccco2)cc1`, for which the cell number change is -0.144%. Still for that read-out and setting: with `CCOC(=O)Cc1ncccc1C(=O)Nc1ccc(OC(F)(F)F)cc1` the figure was 18%. Regarding `Cc1nn2c(=O)cc(COC(=O)c3c(F)cccc3Cl)nc2s1`, the cell number change was -34.4%. In addition, the half-maximal activity concentration (AC50) under setting [2] was 32.6 µM [falling, single point]. Besides, under setting [1], the half-maximal activity concentration (AC50) is 29.1 µM [falling, single point].

On to `CSc1nc2c(c(=O)n1Cc1ccccc1)SC(C)C2` (stereo not drawn), for which the cell number change was found to be 141%. Take `COc1ccc(S(=O)(=O)N(CCc2ccccc2)CC(=O)NCCCO)cc1`: the cell number change was -0.521%.

`CCOC(=O)C1=CN(C)C=C(C(=O)OCC)C1c1ccsc1`: the cell number change was -86.7%. Besides, under setting [2], the AC50 is 9.2 µM [falling, partial curve]. Under setting [1], the concentration at half-maximal activity (AC50) is 14.6 µM [falling, partial curve].

On to `CC(=O)c1ccc(OCc2cc(C(=O)N(C)CCOc3ccc(C)cc3)no2)cc1`, for which the cell number change is -12%. `CCOc1ccc(NC(=O)Cn2cc(C(=O)c3ccco3)c3ccccc32)cc1`: the cell number change is -9.37%. Moreover, the half-maximal activity concentration (AC50) under setting [2] is 1.03 µM [falling, partial curve]. Besides, under setting [1], the AC50 is 2.06 µM [falling, partial curve]. In the case of `COc1ccc(NC(=O)CSc2nc(NS(=O)(=O)c3ccccc3)cc(=O)[nH]2)cc1`, the cell number change is -10.1%. For the same compound, the half-maximal activity concentration (AC50) under setting [1] was 4.11 µM [falling, partial curve, poor fit]. Regarding `Cc1ccc2c(c1)=C(c1ccccc1)N(O)CC(=O)N=2`, the cell number change turned out to be 22.6%. With `Cc1ccccc1OCc1nnc(SCC(=O)Nc2ccc3c(c2)OCO3)n1C`, the cell number change was -4.24%. Under setting [1], the AC50 was 18.4 µM [rising, partial curve, poor fit]. In the case of `C#CCn1c(=NC(=O)c2cc(Cl)sc2Cl)sc2cc(S(N)(=O)=O)ccc21`, the cell number change is 23.6%. Moreover, under setting [2], the AC50 is 2.91 µM [rising, single point].

Take `CCOC(=O)Nc1ccc(S(=O)(=O)Nn2cnnc2)cc1`: the cell number change was found to be 5.18%. Moreover, the AC50 under setting [1] was 29.1 µM [falling, single point]. Consider `OC(COc1ccc(Br)cc1)Cn1ccnc1` (stereo not drawn), for which the cell number change is -14.9%. For the same compound, under setting [2], the concentration at half-maximal activity (AC50) is 0.82 µM [falling, single point]. Take `c1ccc2c(c1)-c1cccc3c1c-2cc1ccccc13`: the cell number change was -28.5%. Also, the AC50 under setting [1] is 0.103 µM [rising, single point]. As for `COc1cc(/C=C(\C#N)c2nc3ccccc3o2)ccc1O`, the cell number change was -37.6%. Further, the AC50 under setting [2] is 18.4 µM [falling, single point]. In addition, under setting [1], the concentration at half-maximal activity (AC50) is 29.1 µM [falling, single point].

As for `CC(C)CNC(=O)Cn1c(=O)c2c(ncn2CC(C)C)n(Cc2ccccc2)c1=O`, the cell number change is -11.5%. Under setting [1], the AC50 was 0.13 µM [falling, full curve, poor fit].

Regarding `Fc1ccc(CNc2nc(-c3ccccc3)nc3ccccc23)cc1`, the cell number change is -4.03%. Moreover, under setting [2], the AC50 is 0.82 µM [rising, full curve, poor fit]. The concentration at half-maximal activity (AC50) under setting [1] was 0.58 µM [rising, full curve]. Consider `COc1ccc(-c2[nH]nc3c2C(c2ccncc2)C(C#N)=C(N)O3)cc1` (stereo not drawn), for which the concentration at half-maximal activity (AC50) is, setting by setting: under setting [2], 2.31 µM [rising, partial curve]; under setting [1], 2.31 µM [rising, partial curve]. Take `O=C(CNc1ccccc1)N/N=C/c1ccc([N+](=O)[O-])o1`: the cell number change is -15.6%. The concentration at half-maximal activity (AC50) under setting [1] was 23.1 µM [falling, partial curve]. On to `O=C(COc1ccc([N+](=O)[O-])cc1)Nc1ccc2[nH]c(=O)[nH]c2c1`, for which the cell number change was -7.84%. Besides, under setting [1], the concentration at half-maximal activity (AC50) is 18.4 µM [falling, partial curve].

`Cc1ccc(NC(=O)CS(=O)CC(=O)N(c2ccccc2)C(C)C(=O)NC2CCCC2)cc1` (stereo not drawn): the cell number change is 36.5%. Also, the AC50 under setting [2] was 3.26 µM [rising, full curve, poor fit]. Moreover, the half-maximal activity concentration (AC50) under setting [1] was 18.4 µM [rising, partial curve].

`CC(=O)Nc1cccc(NC(=O)CCCC2CCCCC2)c1`: the cell number change was determined as 20.5%. Further, the AC50 under setting [1] is 29.1 µM [rising, single point]. As for `Cc1ccc(S(=O)(=O)N2CCCCC2CCNC(=O)C(=O)NCc2cccnc2)cc1` (stereo not drawn), the cell number change was -39%. Moreover, the half-maximal activity concentration (AC50) under setting [2] was 29.1 µM [falling, single point]. The AC50 under setting [1] is 29.1 µM [falling, partial curve, poor fit].

For the compound `COc1ccc(NS(=O)(=O)c2cc(NC(=O)/C=C/c3cc(OC)ccc3OC)ccc2N2CCCCC2)cc1`, the half-maximal activity concentration (AC50) under setting [2] was 0.411 µM [rising, partial curve, poor fit]. For `CCn1ncc(Cl)c1C(=O)Nc1ccc2c(c1)CCC2`, the cell number change is -53%. With `CCC(C)NC(=O)CCc1c(C)nc2nc(-c3cc(OC)cc(OC)c3)nn2c1C` (stereo not drawn), the cell number change amounted to 5.57%. Under setting [1], the AC50 was 29.1 µM [rising, single point]. On to `O=C(CCNC(=O)c1ccc([N+](=O)[O-])cc1)NC1CCCCC1`, for which the cell number change was -30%. Moreover, the concentration at half-maximal activity (AC50) under setting [2] was 0.651 µM [falling, full curve, poor fit]. With `O=C(NC1CC1)C(Cc1ccccc1)NS(=O)(=O)c1ccccc1F` (stereo not drawn), under setting [2], the AC50 was 6.51 µM [falling, single point]. Consider `CCOC(OCC)c1cn(Cc2ccc(C(=O)c3ccccc3)cc2)nn1`, for which the cell number change came to 12.6%. Further, the AC50 under setting [1] is 0.259 µM [rising, full curve, poor fit]. As to `O=C(COC(=O)C1CC1)NC(=O)NCc1ccccc1`, the cell number change is -3.29%. The AC50 under setting [1] is 0.103 µM [falling, partial curve, poor fit]. In the case of `CNS(=O)(=O)c1ccc(NS(=O)(=O)c2ccccc2F)cc1`, the cell number change turned out to be 35.9%.
